# US20220220533A1, “METHOD OF DIAGNOSING AND MONITORING SUBSTANCE ADDICTION OR BEHAVIORAL ADDICTION USING C-KIT BIOMARKER” (Wuhan University, priority 2019, published 2022)
# Tested on: c-Kit mRNA
# Settings: morphine 5-25 mg/kg s.c. for 6 days, compared with non-addicted rats, p<0.05
compound,measurement,value
CN1CC[C@]23c4c5ccc(O)c4O[C@H]2[C@@H](O)C=C[C@H]3[C@H]1C5 [morphine],expression level of c-Kit mRNA in peripheral plasma (exosomes),significantly increased
